The target of the assay is T1, recombinant PfRhopH3 C-terminal fragment (PfRhopH3C; 617-865 aa) (Plasmodium falciparum) (UniProt Q8I395).
T1 sequence: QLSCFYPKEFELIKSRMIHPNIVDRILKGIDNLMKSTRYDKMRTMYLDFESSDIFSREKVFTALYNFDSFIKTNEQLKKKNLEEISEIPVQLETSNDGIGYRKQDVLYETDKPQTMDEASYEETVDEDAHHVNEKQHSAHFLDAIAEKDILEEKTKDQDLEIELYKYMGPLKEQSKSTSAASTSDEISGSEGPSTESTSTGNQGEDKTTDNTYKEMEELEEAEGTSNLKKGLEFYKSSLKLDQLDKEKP
In words: pull-down.

These are yes or no findings as the source states them, for the method shown. In cells and extracts the contact can be indirect. Some entries that bind do so weakly or less than the wild type.

B1: native 14-3-3[…] from RBC lysate (protein, UniProt Q04917 1-246)
chain: MGDREQLLQRARLAEQAERYDDMASAMKAVTELNEPLSNEDRNLLSVAYKNVVGARRSSWRVISSIEQKTMADGNEKKLEKVKAYREKIEKELETVCNDVLSLLDKFLIKNCNDFQYESKVFYLKMKGDYYRYLAEVASGEKKNSVVEASEAAYKEAFEISKEQMQPTHPIRLGLALNFSVFYYEIQNAPEQACLLAKQAFDDAIAELDTLNEDSYKDSTLIMQLLRDNLTLWTSDQQDEEAGEGN
In the case of B1, the binding entry is recorded as “binds”.

Values taken from paper doi:10.1101/2023.04.15.537002.
